The source of these data is the supplement of paper PMC12669797.

The entries are a selection whose mix differs from that of the whole data set.

For the test, the system named is ES2. Kind of test: cell viability relative to DMSO control (MTS) (fraction of DMSO control); higher = more viable cells / less growth inhibition. The conditions noted are these: 10 µM; 48 h. As for the experimental part: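 SCADS inhibitor kit III (367 inhibitors) screened at 10 µM final concentration on TOV-21G (HNF-1ß positive) and ES2 (HNF-1ß negative) ovarian clear cell carcinoma cells seeded at 5000 cells/well in 96-well plates. Cell viability was read by MTS assay 48 h after compound addition and expressed relative to DMSO control wells (N=3).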
`O=C1Nc2ccc(-c3cccnc3)cc2/C1=C/c1ccc[nH]1` [JAK3 Inhibitor VI] gave a cell viability of 0.536.
